These are yes or no findings as the source states them, for the method shown.
Experiments:
[1] = target: p53 (full-length) (UniProt P04637); assay: two-hybrid; yeast strain AH10 (Clontech) cotransformed with pGBKT7 and pGADT7 constructs; selected on -Leu/-Trp (2-DO), interaction tested by growth on -Leu/-Trp/-His/-Ade (4-DO), scored after 5 days at 30°C
[2] = target: T1, MAXP1 (UniProt O35141); assay: as above
T1 sequence: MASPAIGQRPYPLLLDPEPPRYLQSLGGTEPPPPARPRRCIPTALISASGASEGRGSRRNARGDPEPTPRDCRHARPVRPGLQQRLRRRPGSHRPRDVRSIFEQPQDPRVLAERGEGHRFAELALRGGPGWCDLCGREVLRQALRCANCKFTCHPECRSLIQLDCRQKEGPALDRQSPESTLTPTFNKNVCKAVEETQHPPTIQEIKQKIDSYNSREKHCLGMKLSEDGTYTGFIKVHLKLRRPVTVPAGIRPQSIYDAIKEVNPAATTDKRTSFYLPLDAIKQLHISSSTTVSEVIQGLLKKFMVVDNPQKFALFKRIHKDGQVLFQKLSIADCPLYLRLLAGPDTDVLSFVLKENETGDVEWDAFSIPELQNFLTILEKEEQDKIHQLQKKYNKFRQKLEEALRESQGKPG

- binding [1]: no binding
- binding [2]: no binding
Substance: p19 H-Ras (from UniProt P01112-2 1-170)
